Assay results from PMC3486646.
Results are given in words; binding and its absence hold for the method and conditions named. In cells and extracts the contact can be indirect. These calls come from enrichment with a bait or labelling near it, and not all partners need be listed.

The chains behind the UniProt entries cited, without tags or fusion partners. Where a name states a change or a piece, a line headed by the entry shows the natural chain unless it says otherwise. Residues count along the entry.
UniProt O95793: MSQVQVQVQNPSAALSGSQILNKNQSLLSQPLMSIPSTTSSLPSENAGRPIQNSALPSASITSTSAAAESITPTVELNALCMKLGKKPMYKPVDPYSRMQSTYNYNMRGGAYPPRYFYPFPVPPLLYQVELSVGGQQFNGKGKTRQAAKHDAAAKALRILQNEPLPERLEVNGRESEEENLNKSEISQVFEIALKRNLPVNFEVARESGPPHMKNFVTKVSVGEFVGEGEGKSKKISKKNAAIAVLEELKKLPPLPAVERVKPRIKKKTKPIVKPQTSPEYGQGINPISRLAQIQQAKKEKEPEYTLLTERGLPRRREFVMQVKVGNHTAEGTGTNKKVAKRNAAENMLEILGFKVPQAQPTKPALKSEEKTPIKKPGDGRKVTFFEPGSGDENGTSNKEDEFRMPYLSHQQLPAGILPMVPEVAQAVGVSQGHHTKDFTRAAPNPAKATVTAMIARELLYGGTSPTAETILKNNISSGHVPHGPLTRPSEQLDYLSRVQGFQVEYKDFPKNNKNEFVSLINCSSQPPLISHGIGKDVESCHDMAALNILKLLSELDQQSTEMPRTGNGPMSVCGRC
Staufen1-TAP: residues 82-577 of O95793
UniProt Q13200: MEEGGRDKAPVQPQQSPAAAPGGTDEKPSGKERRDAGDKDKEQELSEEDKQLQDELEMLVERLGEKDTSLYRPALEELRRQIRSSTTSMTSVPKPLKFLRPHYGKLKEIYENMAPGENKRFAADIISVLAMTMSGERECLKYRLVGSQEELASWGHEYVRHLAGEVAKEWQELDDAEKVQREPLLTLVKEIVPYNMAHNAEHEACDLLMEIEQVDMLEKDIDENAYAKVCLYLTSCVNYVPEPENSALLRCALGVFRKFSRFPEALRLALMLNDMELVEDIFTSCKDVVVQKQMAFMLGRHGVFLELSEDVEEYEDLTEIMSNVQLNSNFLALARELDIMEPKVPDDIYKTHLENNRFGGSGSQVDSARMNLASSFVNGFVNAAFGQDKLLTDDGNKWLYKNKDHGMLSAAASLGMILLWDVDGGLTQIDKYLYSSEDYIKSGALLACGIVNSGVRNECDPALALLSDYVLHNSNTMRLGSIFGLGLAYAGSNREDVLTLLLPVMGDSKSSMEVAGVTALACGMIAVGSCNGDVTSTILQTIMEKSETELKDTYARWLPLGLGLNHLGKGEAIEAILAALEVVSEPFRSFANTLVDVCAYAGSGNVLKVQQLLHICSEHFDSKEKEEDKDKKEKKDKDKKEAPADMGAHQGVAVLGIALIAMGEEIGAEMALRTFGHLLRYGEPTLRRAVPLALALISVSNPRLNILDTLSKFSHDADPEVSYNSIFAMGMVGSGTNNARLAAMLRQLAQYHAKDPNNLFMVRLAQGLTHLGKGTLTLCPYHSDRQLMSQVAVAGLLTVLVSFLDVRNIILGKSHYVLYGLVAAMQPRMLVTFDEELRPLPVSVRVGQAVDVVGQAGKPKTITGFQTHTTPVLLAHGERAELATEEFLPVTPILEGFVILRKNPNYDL
UniProt P84077: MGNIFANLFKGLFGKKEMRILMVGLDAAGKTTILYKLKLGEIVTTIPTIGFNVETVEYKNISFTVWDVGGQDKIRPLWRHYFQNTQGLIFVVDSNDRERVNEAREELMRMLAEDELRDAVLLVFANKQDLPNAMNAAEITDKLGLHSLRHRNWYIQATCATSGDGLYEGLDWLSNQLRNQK
UniProt P18085: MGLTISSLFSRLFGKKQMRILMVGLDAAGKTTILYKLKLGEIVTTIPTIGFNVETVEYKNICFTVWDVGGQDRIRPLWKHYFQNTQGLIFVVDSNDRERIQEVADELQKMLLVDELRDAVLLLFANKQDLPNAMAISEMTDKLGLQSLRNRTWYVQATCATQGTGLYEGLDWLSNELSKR
UniProt P53396: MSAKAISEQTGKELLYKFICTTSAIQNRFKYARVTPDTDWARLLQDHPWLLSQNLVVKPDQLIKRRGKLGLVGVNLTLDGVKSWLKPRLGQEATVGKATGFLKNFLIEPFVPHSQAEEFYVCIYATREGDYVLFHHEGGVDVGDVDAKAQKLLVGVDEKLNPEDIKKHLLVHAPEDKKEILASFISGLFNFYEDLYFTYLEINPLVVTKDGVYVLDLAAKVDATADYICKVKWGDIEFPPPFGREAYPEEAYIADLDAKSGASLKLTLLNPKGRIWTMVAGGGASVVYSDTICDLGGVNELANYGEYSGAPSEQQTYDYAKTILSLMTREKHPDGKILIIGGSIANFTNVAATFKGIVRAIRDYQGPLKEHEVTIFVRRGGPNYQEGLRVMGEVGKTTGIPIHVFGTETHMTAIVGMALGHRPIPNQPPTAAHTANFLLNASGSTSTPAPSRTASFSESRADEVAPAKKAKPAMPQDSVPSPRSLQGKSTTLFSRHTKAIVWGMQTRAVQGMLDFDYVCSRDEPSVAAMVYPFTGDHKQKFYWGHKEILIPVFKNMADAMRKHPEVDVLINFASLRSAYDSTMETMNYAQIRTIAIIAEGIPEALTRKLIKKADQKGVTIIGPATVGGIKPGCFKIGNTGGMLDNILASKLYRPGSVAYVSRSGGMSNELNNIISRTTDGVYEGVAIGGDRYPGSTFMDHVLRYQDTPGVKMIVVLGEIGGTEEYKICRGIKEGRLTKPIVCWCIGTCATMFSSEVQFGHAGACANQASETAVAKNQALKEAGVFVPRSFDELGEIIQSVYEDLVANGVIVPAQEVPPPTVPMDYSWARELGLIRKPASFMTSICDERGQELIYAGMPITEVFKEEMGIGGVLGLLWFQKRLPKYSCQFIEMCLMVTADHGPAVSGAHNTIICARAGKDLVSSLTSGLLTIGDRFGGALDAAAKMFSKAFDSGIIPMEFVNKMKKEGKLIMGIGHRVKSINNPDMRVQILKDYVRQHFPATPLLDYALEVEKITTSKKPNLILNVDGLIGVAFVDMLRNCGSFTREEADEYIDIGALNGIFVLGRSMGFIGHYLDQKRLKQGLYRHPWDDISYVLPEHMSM
UniProt O75131: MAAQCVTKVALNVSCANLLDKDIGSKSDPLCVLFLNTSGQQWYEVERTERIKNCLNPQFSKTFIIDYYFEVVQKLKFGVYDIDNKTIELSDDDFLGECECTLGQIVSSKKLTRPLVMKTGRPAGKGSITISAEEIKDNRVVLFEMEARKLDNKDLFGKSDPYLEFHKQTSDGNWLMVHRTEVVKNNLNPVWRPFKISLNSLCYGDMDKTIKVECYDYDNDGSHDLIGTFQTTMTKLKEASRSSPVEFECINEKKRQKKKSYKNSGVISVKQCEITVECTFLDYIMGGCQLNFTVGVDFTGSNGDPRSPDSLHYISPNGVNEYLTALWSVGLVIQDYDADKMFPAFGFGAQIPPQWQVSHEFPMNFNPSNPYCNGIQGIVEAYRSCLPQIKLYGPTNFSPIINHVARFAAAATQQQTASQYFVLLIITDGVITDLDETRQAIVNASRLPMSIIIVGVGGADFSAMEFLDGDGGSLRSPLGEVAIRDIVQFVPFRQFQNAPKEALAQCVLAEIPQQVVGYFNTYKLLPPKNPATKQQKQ
UniProt Q7L523: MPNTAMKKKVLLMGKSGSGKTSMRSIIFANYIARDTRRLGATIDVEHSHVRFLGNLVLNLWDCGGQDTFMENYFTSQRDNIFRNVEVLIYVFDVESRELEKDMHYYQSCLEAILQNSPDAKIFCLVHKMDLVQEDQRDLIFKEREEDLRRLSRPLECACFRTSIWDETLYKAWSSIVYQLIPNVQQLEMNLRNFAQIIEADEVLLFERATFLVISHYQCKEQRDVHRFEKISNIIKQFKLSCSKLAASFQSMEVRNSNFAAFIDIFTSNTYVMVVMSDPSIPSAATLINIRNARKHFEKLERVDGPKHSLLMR
UniProt P51148: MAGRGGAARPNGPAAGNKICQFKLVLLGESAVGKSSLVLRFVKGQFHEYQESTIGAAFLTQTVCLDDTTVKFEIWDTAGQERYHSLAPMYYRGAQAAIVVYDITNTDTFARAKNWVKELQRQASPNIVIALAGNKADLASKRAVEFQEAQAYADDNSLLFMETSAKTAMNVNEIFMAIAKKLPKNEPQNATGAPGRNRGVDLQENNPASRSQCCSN
UniProt P55060: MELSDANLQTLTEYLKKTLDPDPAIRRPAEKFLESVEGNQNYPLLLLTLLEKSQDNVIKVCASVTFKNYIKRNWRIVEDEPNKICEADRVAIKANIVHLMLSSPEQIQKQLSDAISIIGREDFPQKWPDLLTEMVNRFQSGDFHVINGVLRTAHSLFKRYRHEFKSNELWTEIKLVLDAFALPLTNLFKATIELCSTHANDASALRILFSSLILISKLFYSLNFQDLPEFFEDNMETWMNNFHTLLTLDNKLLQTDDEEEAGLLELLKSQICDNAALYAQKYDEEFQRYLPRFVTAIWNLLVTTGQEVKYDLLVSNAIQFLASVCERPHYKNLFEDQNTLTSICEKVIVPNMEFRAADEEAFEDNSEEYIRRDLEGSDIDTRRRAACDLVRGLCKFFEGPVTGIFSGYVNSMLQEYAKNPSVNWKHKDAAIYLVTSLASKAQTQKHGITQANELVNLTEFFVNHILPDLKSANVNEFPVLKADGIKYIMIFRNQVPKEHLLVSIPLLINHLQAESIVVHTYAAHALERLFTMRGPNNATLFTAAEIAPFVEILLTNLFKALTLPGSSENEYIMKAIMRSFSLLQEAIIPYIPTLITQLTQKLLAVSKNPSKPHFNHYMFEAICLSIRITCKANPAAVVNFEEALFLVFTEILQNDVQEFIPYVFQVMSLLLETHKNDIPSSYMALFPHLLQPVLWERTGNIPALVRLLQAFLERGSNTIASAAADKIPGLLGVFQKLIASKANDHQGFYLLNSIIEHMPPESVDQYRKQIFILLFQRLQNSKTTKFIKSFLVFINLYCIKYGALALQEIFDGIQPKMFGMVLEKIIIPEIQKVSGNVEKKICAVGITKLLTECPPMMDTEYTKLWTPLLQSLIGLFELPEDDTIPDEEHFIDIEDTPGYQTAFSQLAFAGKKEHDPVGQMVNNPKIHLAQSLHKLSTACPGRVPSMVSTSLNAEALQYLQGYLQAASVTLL
UniProt Q96KR1: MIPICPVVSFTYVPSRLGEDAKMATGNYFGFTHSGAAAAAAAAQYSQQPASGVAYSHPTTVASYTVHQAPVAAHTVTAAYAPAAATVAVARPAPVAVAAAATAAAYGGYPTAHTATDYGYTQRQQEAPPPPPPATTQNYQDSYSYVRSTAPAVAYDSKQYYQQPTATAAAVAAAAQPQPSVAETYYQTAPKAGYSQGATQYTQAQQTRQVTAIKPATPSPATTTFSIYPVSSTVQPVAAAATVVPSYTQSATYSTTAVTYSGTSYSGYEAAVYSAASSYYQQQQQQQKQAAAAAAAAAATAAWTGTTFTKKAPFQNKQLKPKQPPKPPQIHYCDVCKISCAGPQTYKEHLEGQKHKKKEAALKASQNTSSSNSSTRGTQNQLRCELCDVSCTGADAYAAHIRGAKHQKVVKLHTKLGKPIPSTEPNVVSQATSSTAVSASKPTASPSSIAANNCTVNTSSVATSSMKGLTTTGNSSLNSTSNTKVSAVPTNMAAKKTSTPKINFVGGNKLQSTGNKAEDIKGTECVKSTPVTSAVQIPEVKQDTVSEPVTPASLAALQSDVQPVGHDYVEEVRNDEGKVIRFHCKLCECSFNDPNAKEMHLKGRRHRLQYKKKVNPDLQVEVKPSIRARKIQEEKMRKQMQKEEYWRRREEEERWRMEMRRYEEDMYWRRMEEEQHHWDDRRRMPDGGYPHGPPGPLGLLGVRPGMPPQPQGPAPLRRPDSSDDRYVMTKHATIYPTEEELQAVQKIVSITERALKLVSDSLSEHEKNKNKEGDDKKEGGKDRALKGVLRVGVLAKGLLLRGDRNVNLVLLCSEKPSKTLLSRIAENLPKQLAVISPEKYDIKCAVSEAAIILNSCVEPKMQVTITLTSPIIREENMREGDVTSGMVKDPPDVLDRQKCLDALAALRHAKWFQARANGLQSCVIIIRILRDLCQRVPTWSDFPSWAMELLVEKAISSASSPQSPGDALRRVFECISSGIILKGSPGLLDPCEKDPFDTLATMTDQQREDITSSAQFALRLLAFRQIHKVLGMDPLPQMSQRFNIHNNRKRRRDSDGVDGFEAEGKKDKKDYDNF
UniProt Q92572: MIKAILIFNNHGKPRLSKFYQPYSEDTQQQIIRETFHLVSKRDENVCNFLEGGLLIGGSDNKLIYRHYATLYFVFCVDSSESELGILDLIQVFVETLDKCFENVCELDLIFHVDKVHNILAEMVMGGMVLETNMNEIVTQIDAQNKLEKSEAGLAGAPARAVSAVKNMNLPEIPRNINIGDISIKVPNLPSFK
UniProt P04406: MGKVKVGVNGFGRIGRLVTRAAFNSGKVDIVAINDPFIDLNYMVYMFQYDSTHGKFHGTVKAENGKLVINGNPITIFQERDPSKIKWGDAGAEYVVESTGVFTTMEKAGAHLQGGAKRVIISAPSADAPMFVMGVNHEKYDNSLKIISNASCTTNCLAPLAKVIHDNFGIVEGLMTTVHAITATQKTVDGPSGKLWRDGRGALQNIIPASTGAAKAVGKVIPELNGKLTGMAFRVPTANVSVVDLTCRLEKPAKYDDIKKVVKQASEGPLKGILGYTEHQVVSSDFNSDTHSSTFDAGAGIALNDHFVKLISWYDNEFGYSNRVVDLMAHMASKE

B1: Matrin 3 (protein, UniProt P43243 1-847)
chain: MSKSFQQSSLSRDSQGHGRDLSAAGIGLLAAATQSLSMPASLGRMNQGTARLASLMNLGMSSSLNQQGAHSALSSASTSSHNLQSIFNIGSRGPLPLSSQHRGDADQASNILASFGLSARDLDELSRYPEDKITPENLPQILLQLKRRRTEEGPTLSYGRDGRSATREPPYRVPRDDWEEKRHFRRDSFDDRGPSLNPVLDYDHGSRSQESGYYDRMDYEDDRLRDGERCRDDSFFGETSHNYHKFDSEYERMGRGPGPLQERSLFEKKRGAPPSSNIEDFHGLLPKGYPHLCSICDLPVHSNKEWSQHINGASHSRRCQLLLEIYPEWNPDNDTGHTMGDPFMLQQSTNPAPGILGPPPPSFHLGGPAVGPRGNLGAGNGNLQGPRHMQKGRVETSRVVHIMDFQRGKNLRYQLLQLVEPFGVISNHLILNKINEAFIEMATTEDAQAAVDYYTTTPALVFGKPVRVHLSQKYKRIKKPEGKPDQKFDQKQELGRVIHLSNLPHSGYSDSAVLKLAEPYGKIKNYILMRMKSQAFIEMETREDAMAMVDHCLKKALWFQGRCVKVDLSEKYKKLVLRIPNRGIDLLKKDKSRKRSYSPDGKESPSDKKSKTDGSQKTESSTEGKEQEEKSGEDGEKDTKDDQTEQEPNMLLESEDELLVDEEEAAALLESGSSVGDETDLANLGDVASDGKKEPSDKAVKKDGSASAAAKKKLKKVDKIEELDQENEAALENGIKNEENTEPGAESSENADDPNKDTSENADGQSDENKDDYTIPDEYRIGPYQPNVPVGIDYVIPKTGFYCKLCSLFYTNEEVAKNTHCSSLPHYQKLKKFLNKLAEERRQKKET
B2: Ribophorin-1 (protein, UniProt P04843 24-607)
chain: ASSEAPPLINEDVKRTVDLSSHLAKVTAEVVLAHLGGGSTSRATSFLLALEPELEARLAHLGVQVKGEDEEENNLEVRETKIKGKSGRFFTVKLPVALDPGAKISVIVETVYTHVLHPYPTQITQSEKQFVVFEGNHYFYSPYPTKTQTMRVKLASRNVESYTKLGNPTRSEDLLDYGPFRDVPAYSQDTFKVHYENNSPFLTITSMTRVIEVSHWGNIAVEENVDLKHTGAVLKGPFSRYDYQRQPDSGISSIRSFKTILPAAAQDVYYRDEIGNVSTSHLLILDDSVEMEIRPRFPLFGGWKTHYIVGYNLPSYEYLYNLGDQYALKMRFVDHVFDEQVIDSLTVKIILPEGAKNIEIDSPYEISRAPDELHYTYLDTFGRPVIVAYKKNLVEQHIQDIVVHYTFNKVLMLQEPLLVVAAFYILFFTVIIYVRLDFSITKDPAAEARMKVACITEQVLTLVNKRIGLYRHFDETVNRYKQSRDISTLNSGKKSLETEHKALTSEIALLQSRLKTEGSDLCDRVSEMQKLDAQVKELVLKSAVEAERLVAGKLKKDTYIENEKLISGKRQELVTKIDHILDAL
B3: 7-dehydrocholesterol reductase (protein, UniProt Q9UBM7 1-475)
chain: MAAKSQPNIPKAKSLDGVTNDRTASQGQWGRAWEVDWFSLASVIFLLLFAPFIVYYFIMACDQYSCALTGPVVDIVTGHARLSDIWAKTPPITRKAAQLYTLWVTFQVLLYTSLPDFCHKFLPGYVGGIQEGAVTPAGVVNKYQINGLQAWLLTHLLWFANAHLLSWFSPTIIFDNWIPLLWCANILGYAVSTFAMVKGYFFPTSARDCKFTGNFFYNYMMGIEFNPRIGKWFDFKLFFNGRPGIVAWTLINLSFAAKQRELHSHVTNAMVLVNVLQAIYVIDFFWNETWYLKTIDICHDHFGWYLGWGDCVWLPYLYTLQGLYLVYHPVQLSTPHAVGVLLLGLVGYYIFRVANHQKDLFRRTDGRCLIWGRKPKVIECSYTSADGQRHHSKLLVSGFWGVARHFNYVGDLMGSLAYCLACGGGHLLPYFYIIYMAILLTHRCLRDEHRCASKYGRDWERYTAAVPYRLLPGIF
B4: Alpha-internexin (protein, UniProt Q16352 1-499)
chain: MSFGSEHYLCSSSSYRKVFGDGSRLSARLSGAGGAGGFRSQSLSRSNVASSAACSSASSLGLGLAYRRPPASDGLDLSQAAARTNEYKIIRTNEKEQLQGLNDRFAVFIEKVHQLETQNRALEAELAALRQRHAEPSRVGELFQRELRDLRAQLEEASSARSQALLERDGLAEEVQRLRARCEEESRGREGAERALKAQQRDVDGATLARLDLEKKVESLLDELAFVRQVHDEEVAELLATLQASSQAAAEVDVTVAKPDLTSALREIRAQYESLAAKNLQSAEEWYKSKFANLNEQAARSTEAIRASREEIHEYRRQLQARTIEIEGLRGANESLERQILELEERHSAEVAGYQDSIGQLENDLRNTKSEMARHLREYQDLLNVKMALDIEIAAYRKLLEGEETRFSTSGLSISGLNPLPNPSYLLPPRILSATTSKVSSTGLSLKKEEEEEEASKVASKKTSQIGESFEEILEETVISTKKTEKSNIEETTISSQKI

The molecules below were run against Staufen1-TAP (UniProt O95793) (assay: affinity purification with mass spectrometry; tandem affinity purification of Staufen1-TAP from lysates of stable 293T cells, mock or pNL4-3 transfected; eluates on SDS-PAGE, 23 gel slices, in gel trypsin digestion, LC-MS/MS; FDR less than 1%).

With B1 as the molecule, how does the binding read?
The binding was “binds”.

How did the binding turn out when B2 was run?
Its binding is “binds”.

B3 was tested. Which binding did it give?
The binding was “binds”.

With B4 as the molecule, how does the binding read?
Its binding is “binds”.

Target: Staufen1-TAP (UniProt O95793)
Experiment: as above
Remark: another data set of the same source

For “26S protease regulatory subunit S10B (from UniProt P62333 1-389)”, which binding is on record?
Its binding is “binds”.

For “26S proteasome non-ATPase regulatory subunit 2 (from UniProt Q13200 1-908)”, which binding is on record?
The binding was “binds”.

For “ADP-ribosylation factor 1 (from UniProt P84077 1-181)”, which binding is on record?
The binding was “binds”.

How did the binding turn out when “ADP-ribosylation factor 4 (from UniProt P18085 1-180)” was run?
The binding was “binds”.

“ADP-ribosylation factor 5 (from UniProt P84085 1-180)” was tested. Which binding did it give?
The binding was “binds”.

Which binding does the source give for “ADP-ribosylation factor 6 (from UniProt P62330 1-175)” here?
The binding was “binds”.

How did the binding turn out when “AP-2 complex subunit mu (from UniProt Q96CW1 1-435)” was run?
Its binding is “binds”.

With “ATP-citrate synthase (from UniProt P53396 1-1101)” as the molecule, how does the binding read?
Its binding is “binds”.

CDC5L (from UniProt Q99459 1-802) was tested. Which binding did it give?
Its binding is “binds”.

Which binding does the source give for “Coatomer subunit zeta-1 (from UniProt P61923 1-177)” here?
The binding was “binds”.

Copine-3 (from UniProt O75131 1-537) was tested. Which binding did it give?
Its binding is “binds”.

For “E3 ubiquitin-protein ligase (BRE1A) (from UniProt Q5VTR2 1-975)”, which binding is on record?
The binding was “binds”.

“Eukaryotic initiation factor 4A-III (from UniProt P38919 1-411)” was tested. Which binding did it give?
The binding was “binds”.

How did the binding turn out when “Eukaryotic translation initiation factor 3 subunit E (from UniProt P60228 1-445)” was run?
Its binding is “binds”.

With “HIV-1 Rev-binding protein 2 (from UniProt Q13601 1-381)” as the molecule, how does the binding read?
The binding was “binds”.

With “Heat shock 70 kDa protein 1L (from UniProt P34931 1-641)” as the molecule, how does the binding read?
Its binding is “binds”.

With “Heterogeneous nuclear ribonucleoprotein A/B (from UniProt Q99729 1-332)” as the molecule, how does the binding read?
The binding was “binds”.

Which binding does the source give for “Heterogeneous nuclear ribonucleoprotein Q (from UniProt O60506 1-623)” here?
The binding was “binds”.

How did the binding turn out when Hsc70 (from UniProt P11142 1-646) was run?
Its binding is “binds”.

With Hsp60 (from UniProt P10809 27-573) as the molecule, how does the binding read?
The binding was “binds”.

With “IQ motif containing GTPase activating protein 1 (from UniProt P46940 1-1657)” as the molecule, how does the binding read?
The binding was “binds”.

For “Insulin-like growth factor II mRNA-binding protein-3 (from UniProt O00425 1-579)”, which binding is on record?
Its binding is “binds”.

With “Long-chain-fatty-acid–CoA ligase 3 (from UniProt O95573 1-720)” as the molecule, how does the binding read?
Its binding is “binds”.

Which binding does the source give for Nef (from UniProt P05855 1-205) here?
Its binding is “binds”.

How did the binding turn out when “Probable ATP-dependent RNA helicase (DDX17) (from UniProt Q92841 1-729)” was run?
The binding was “binds”.

With “Programmed cell death 8 (from UniProt O95831)” as the molecule, how does the binding read?
The binding was “binds”.

With “Protein transport protein Sec61 subunit alpha isoform 1 (from UniProt P61619 1-476)” as the molecule, how does the binding read?
Its binding is “binds”.

With “Ras-related GTP-binding protein A (from UniProt Q7L523 1-313)” as the molecule, how does the binding read?
The binding was “binds”.

“Ras-related protein Rab-5C (from UniProt P51148 1-216)” was tested. Which binding did it give?
The binding was “binds”.

With “Ras-related protein Rab-8A (from UniProt P61006 1-207)” as the molecule, how does the binding read?
The binding was “binds”.

With “Ras-related protein Rab-10 (from UniProt P61026 1-200)” as the molecule, how does the binding read?
Its binding is “binds”.

For SF3B2 (from UniProt Q13435 1-895), which binding is on record?
Its binding is “binds”.

With “Spliceosome RNA helicase (BAT1) (from UniProt Q13838 1-428)” as the molecule, how does the binding read?
The binding was “binds”.

“Splicing factor, arginine/serine-rich 13A (from UniProt O75494 1-262)” was tested. Which binding did it give?
Its binding is “binds”.

With “Tubulin alpha-4A chain (from UniProt P68366 1-448)” as the molecule, how does the binding read?
The binding was “binds”.

“V-type proton ATPase subunit d 1 (from UniProt P61421 1-351)” was tested. Which binding did it give?
Its binding is “binds”.

For Xpo2 (from UniProt P55060 1-971), which binding is on record?
The binding was “binds”.

For YB-1 (from UniProt P67809 1-324), which binding is on record?
Its binding is “binds”.

“Zinc finger RNA-binding protein (from UniProt Q96KR1 1-1074)” was tested. Which binding did it give?
Its binding is “binds”.

With “adaptor protein AP-3S1 (sigma subunit) (from UniProt Q92572 1-193)” as the molecule, how does the binding read?
The binding was “binds”.

With “chromosomal regional maintenance protein 1 (from UniProt O14980 1-1071)” as the molecule, how does the binding read?
Its binding is “binds”.

With “coatomer subunit alpha (from UniProt P53621 1-1224)” as the molecule, how does the binding read?
The binding was “binds”.

eF1 γ (from UniProt P26641 1-437) was tested. Which binding did it give?
The binding was “binds”.

eF1 δ (from UniProt P29692 1-281) was tested. Which binding did it give?
Its binding is “binds”.

Which binding does the source give for eIF4A1 (from UniProt P60842 1-406) here?
Its binding is “binds”.

With “endogenous Staufen1 (as named among the mass spectrometry hits) (from UniProt O95793 1-577)” as the molecule, how does the binding read?
Its binding is “binds”.

For “glyceraldehyde-3-phosphate dehydrogenase (from UniProt P04406 1-335)”, which binding is on record?
Its binding is “binds”.

How did the binding turn out when “insulin-like growth factor II mRNA-binding protein 2 (from UniProt Q9Y6M1 1-599)” was run?
The binding was “binds”.

“poly-A binding protein (from UniProt P11940 1-636)” was tested. Which binding did it give?
The binding was “binds”.

“vesicle-fusing ATPase (from UniProt P46459 1-744)” was tested. Which binding did it give?
Its binding is “binds”.

How did the binding turn out when vimentin (from UniProt P08670 1-466) was run?
Its binding is “binds”.
